In this test the target is Flag-SERCA1a (mouse) (UniProt Q8R429). The experiment in a line: co-IP; HEK293 cells co-transfected; lysates (500 ug protein) in Co-IP buffer (20 mM NaPO4, 150 mM NaCl, 2 mM MgCl2, 0.1% NP-40, 10% glycerol, pH 7.4, 1 mM DTT) incubated with anti-DDDDK-tag mAb-magnetic agarose 60 min at 4 °C; eluted with 3× FLAG peptide; Western blot.

Chains of the proteins cited; added tags and fusions are not shown.
UniProt Q8R429: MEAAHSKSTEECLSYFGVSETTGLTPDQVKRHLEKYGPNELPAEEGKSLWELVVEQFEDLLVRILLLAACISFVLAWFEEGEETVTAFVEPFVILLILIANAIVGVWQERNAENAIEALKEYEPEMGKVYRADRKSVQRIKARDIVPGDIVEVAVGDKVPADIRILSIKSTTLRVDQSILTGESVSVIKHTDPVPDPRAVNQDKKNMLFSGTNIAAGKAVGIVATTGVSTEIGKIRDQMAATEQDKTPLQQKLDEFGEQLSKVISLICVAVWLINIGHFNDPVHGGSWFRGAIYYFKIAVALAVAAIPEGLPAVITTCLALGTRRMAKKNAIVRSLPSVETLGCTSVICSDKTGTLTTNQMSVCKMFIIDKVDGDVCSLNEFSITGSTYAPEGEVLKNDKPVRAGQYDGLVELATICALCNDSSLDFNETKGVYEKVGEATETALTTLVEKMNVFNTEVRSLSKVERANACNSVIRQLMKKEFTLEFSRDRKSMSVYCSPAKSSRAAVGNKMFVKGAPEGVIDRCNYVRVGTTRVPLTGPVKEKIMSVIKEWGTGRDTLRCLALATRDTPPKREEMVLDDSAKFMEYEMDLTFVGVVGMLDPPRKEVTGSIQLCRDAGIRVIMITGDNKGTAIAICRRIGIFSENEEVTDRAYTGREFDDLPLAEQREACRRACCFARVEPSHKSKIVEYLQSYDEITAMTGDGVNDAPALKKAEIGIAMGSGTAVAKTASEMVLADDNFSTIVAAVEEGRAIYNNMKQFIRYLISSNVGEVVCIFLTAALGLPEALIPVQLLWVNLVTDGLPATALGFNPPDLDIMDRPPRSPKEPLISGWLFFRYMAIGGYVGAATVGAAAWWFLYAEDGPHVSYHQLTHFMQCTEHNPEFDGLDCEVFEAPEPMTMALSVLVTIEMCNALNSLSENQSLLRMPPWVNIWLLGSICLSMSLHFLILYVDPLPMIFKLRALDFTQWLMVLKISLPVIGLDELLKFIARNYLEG

These are yes or no findings as the source states them, for the method shown. In cells and extracts the contact can be indirect. Some binding calls cover weakened binding; strength is not graded here. Sequences can lack the tags named with a protein.

On to MSGKSWVLISTTSPQSLEDEILGRLLKILFVLFVDLMSIMYVVITS (peptide, UniProt Q9CV60 1-46) [EGFP-MRLN (myoregulin)], for which the binding result is listed as “binds”.

B1: MCARE (no tag named) (protein, UniProt D3Z1U7 1-110)
chain: MSQYASRSDSKGALDSSSPEAYTEDDKTEEDIPAPSNYLWLTIISCFCPAYPVNIVALVFSIMSLNSYNDGDYEGARRLGRNAKWVAIASIIIGLVIIGVSCAVHFSRNP
With B1, the binding result is recorded as “binds”.

These data come from publication PMC12815910.
